Assay results as given in patent publication US20160113265A1, “[…] AND METHODS THEREOF” (Lanodir USA, Inc., priority 2014, published 2016).

Test: PH3 sensor readings above and approximately 1 meter below the surface of fumigated barge cargo
Conditions: for ppm PH3 below the top surface: approximately 1 meter below surface
[1] = Experiment 1: 2,600 g PH3 (approximately 1.03 g PH3/ton cargo), 2,700 metric tons corn kernels, without turbine, 14 hours post injection
[2] = Experiment 1: 2,600 g PH3, without turbine, 32 hours post injection
[3] = Experiment 1: 2,600 g PH3, without turbine, 56 hours post injection
[4] = Experiment 1: 2,600 g PH3, without turbine, 80 hours post injection
[5] = Experiment 1: 2,600 g PH3, without turbine, approximately two weeks later upon arrival at destination port
[6] = Experiment 2: 2,200 g PH3 (approximately 0.814 g PH3/ton cargo), 2,700 metric tons corn kernels, with a turbine, 14 hours post injection
[7] = Experiment 2: 2,200 g PH3, with a turbine, 32 hours post injection
[8] = Experiment 2: 2,200 g PH3, with a turbine, 56 hours post injection
[9] = Experiment 2: 2,200 g PH3, with a turbine, 80 hours post injection
[10] = Experiment 2: 2,200 g PH3, with a turbine, approximately two weeks later upon arrival at destination port
[11] = Experiment 3: 1,700 g PH3, without auxiliary turbine, 32 hours post injection
[12] = Experiment 3: 1,700 g PH3, without auxiliary turbine, 56 hours post injection
[13] = Experiment 3: 1,700 g PH3, without auxiliary turbine, 80 hours post injection
[14] = Experiment 3: 1,700 g PH3, without auxiliary turbine, approximately two weeks later upon arrival at destination port
[15] = Experiment 4: nine additional barges fumigated as in Experiment 3, final reading approximately two weeks later upon arrival

P [PH3, phosphine gas]
ppm PH3 above the top surface [1]: 0 ppm
ppm PH3 below the top surface [1]: 2000 ppm
ppm PH3 above the top surface [2]: 31 ppm
ppm PH3 below the top surface [2]: 1,500 ppm
ppm PH3 above the top surface [3]: 52 ppm
ppm PH3 below the top surface [3]: 1,356 ppm
ppm PH3 above the top surface [4]: 108 ppm
ppm PH3 below the top surface [4]: 1,300 ppm
ppm PH3 above the top surface of the cargo [5]: 0 ppm
ppm PH3 below the top surface of the cargo [5]: 0 ppm
ppm PH3 above the top surface [6]: 0 ppm
ppm PH3 below the top surface [6]: 1,700 ppm
ppm PH3 above the top surface [7]: 502 ppm
ppm PH3 below the top surface [7]: 1,025 ppm
ppm PH3 above the top surface [8]: 580 ppm
ppm PH3 below the top surface [8]: 1,000 ppm
ppm PH3 above the top surface [9]: 660 ppm
ppm PH3 below the top surface [9]: 112 ppm
ppm PH3 above the top surface of the cargo [10]: 0 ppm
ppm PH3 below the top surface of the cargo [10]: 0 ppm
ppm PH3 above the top surface (Experiment 3: 1,700 g PH3 (approximately 0.620 g PH3/ton cargo), 2,700 metric tons corn kernels, without auxiliary turbine, delivery equipment air flow only, 14 hours post injection): 0 ppm
ppm PH3 below the top surface (Experiment 3: 1,700 g PH3 (approximately 0.620 g PH3/ton cargo), 2,700 metric tons corn kernels, without auxiliary turbine, 14 hours post injection): 1,452 ppm
ppm PH3 above the top surface [11]: 150 ppm
ppm PH3 below the top surface [11]: 1,300 ppm
ppm PH3 above the top surface [12]: 225 ppm
ppm PH3 below the top surface [12]: 1,380 ppm
ppm PH3 above the top surface [13]: 270 ppm
ppm PH3 below the top surface [13]: 1,120 ppm
ppm PH3 above the top surface of the cargo [14]: 0 ppm
ppm PH3 below the top surface of the cargo [14]: 0 ppm
ppm PH3 above the top surface of the cargo [15]: 0 ppm
ppm PH3 below the top surface of the cargo [15]: 0 ppm
